Assay results from publication PMC5216971.
These are yes or no findings as the source states them, for the method shown. In cells and extracts the contact can be indirect. Some results given as binding are weak or reduced against the parent protein; the word gives no strength.

Sequences of proteins named here, by UniProt entry; tags and fusion partners are left off.
UniProt Q8WV93: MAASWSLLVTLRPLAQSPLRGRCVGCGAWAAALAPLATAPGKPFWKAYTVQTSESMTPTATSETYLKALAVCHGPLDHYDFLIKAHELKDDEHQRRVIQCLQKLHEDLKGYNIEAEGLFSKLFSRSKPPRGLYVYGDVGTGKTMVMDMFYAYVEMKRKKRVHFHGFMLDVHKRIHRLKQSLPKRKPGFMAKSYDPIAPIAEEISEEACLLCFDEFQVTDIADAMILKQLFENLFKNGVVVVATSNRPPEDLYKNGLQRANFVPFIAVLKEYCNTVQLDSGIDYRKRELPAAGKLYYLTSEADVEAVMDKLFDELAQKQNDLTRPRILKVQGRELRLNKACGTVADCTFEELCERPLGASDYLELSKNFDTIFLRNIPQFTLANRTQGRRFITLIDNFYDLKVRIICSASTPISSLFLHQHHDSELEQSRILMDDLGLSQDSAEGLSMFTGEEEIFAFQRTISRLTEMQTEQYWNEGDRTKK

How the values were obtained:
[1] = molecular target: LACE1-FLAG (C-fusion Myc-FLAG-tagged human LACE1 ORF, pCMV6-LACE1) (human) (UniProt Q8WV93); assay: co-IP; mitochondria of transfected LACE1 KD HEK293 cells solubilized with 1% Triton X-100 in TBS (2 mg/ml protein); 2 h with anti-FLAG M2 affinity beads at 4°C; five washes with TBS, 0.1% Triton X-100; native elution with 3x FLAG peptide; western blot
[2] = molecular target: CLPP-FLAG (C-fusion Myc-FLAG-tagged human CLPP ORF, pCMV6-CLPP) (human) (UniProt Q16740); assay: as above

- binding [1]: binds
- binding [2]: no binding
Substance: p53 tumor suppressor protein (from UniProt P04637 1-393)
